Measured values taken from PubChem BioAssay AID2284132 (EPA ToxCast).
The shares of active, inactive and inconclusive entries below differ from those in the screen. Potencies beside an inconclusive call are fits to weak or partial responses and may not hold up. The source made the active and inactive calls. The calls were made as follows: active = hit-call score of the fitted dose curve at least 0.9, where 1 is the maximum; inconclusive = response in the unintended direction; inactive = score below 0.9.

Amino acid sequences for entries named in this document (tags omitted). A change or cut given only in a name is not applied to a line headed by its entry.
UniProt O00141: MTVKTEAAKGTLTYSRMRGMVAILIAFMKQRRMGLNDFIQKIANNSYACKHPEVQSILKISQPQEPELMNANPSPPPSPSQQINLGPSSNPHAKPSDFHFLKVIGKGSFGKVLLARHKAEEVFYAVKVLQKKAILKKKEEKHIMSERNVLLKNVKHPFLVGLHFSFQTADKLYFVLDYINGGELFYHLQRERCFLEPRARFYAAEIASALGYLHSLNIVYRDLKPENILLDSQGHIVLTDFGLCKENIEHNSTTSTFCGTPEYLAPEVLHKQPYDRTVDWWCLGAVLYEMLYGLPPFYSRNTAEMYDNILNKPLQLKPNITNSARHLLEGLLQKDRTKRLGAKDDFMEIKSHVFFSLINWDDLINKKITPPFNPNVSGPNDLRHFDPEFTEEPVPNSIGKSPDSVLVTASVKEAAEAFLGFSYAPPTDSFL

biological target: human SGK1 AGC Kinase, SGK1 (gene 6446) (UniProt O00141); experiment: ERF_FR_ENZ_hSGK1: Eurofins (ERF) Enzymatic Radiometric [Km ATP] KinaseProfiler LeadHunter Assay for human SGK1 AGC Kinase
Description: ERF_FR_ENZ_hSGK1 is a biochemical, single-readout assay that uses extracted gene-proteins in a cell-free assay. Measurements were taken 0.5 hour after chemical dosing in a 96-well plate. See SGK1 Human AGC Kinase Enzymatic LANCE Assay [Km ATP], Cerep.ERF_FR_ENZ_hSGK1 is an assay component calculated from the ERF_FR_ENZ_hSGK1 assay. It is designed to measure enzyme activity using a type of enzyme reporter as detected by fluorescence intensity with LANCE technology.Data from the assay component ERF_FR_ENZ_hSGK1 was analyzed at the assay endpoint, ERF_FR_ENZ_hSGK1, in the positive analysis fitting direction relative to DMSO as the negative control and baseline of activity. Using a type of enzyme reporter, loss-of-signal activity can be used to understand changes in enzymatic activity as they relate to gene SGK1. To generalize the intended target to other relatable targets, this assay endpoint is annotated to the kinase intended target family, where the subfamily is serine/threonine kinase.
SGK (h) is incubated with 8 mM MOPS pH 7.0, 0.2 mM EDTA, 30 uM […], 10 mM MgAcetate and [g- 33P]-ATP (specific activity and concentration as required). The reaction is initiated by the addition of the Mg/ATP mix. After incubation for 40 minutes at room temperature, the reaction is stopped by the addition of phosphoric acid to a concentration of 0.5%. An aliquot of the reaction is then spotted onto a filter and washed four times for 4 minutes in 0.425% phosphoric acid and once in methanol prior to drying and scintillation counting.Compound should be supplied in 100% DMSO.We require a stock solution at a concentration of at least 50x higher than the Final Assay Concentration of your cpd. A 10mM stock is also acceptable.When ordering fewer than 60 kinase assays, we need 120uL of 50x concentrated stock. For more than 60 assays, we need 420 uL of 50xcc stock. Please apply the conversion if you provide 10mM stock solution or compounds in powder form (pre-weighed is required) From 50 cpds supplied as solids, the TAT will be extended.

| SMILES | AC50 | outcome |
| --- | --- | --- |
| COc1cc(CCC(=O)CC(=O)CCc2ccc(O)c(OC)c2)ccc1O | inconclusive: 5 µM | – |
| COc1cc(/C=C/C(=O)CC(=O)/C=C/c2ccc(O)c(OC)c2)ccc1O | inconclusive: 0.013 µM | – |
| O=C(/C=C/c1ccc(O)cc1)CC(=O)/C=C/c1ccc(O)cc1 | – | inactive |
